Test results published in PubChem BioAssay AID2685 (National Center for Advancing Translational Sciences (NCATS), 2010).
Some of the results follow. Further columns of the screen follow, without active or inactive calls. The list favours compounds with an active or inconclusive main result. Potencies come from curve fits of mixed quality, noted in brackets.

Assay: qHTS Assay for Lipid Storage Modulators in Drosophila S3 Cells;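 as to cell number change: cells counted by Cell Tracker Red CMTPX staining in the red channel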
Conditions: BODIPY lipid droplet fluorescence, 18-24 h; for cell number change: measured here: cell count max response, cells fed with added oleic acid
In short: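 Drosophila S3 cells got compounds at several concentrations plus oleic acid (400 uM solution). Laser-scanning cytometry with 488 nm excitation read lipid droplets at 500-530 nm and cells at 575-640 nm. Percent activity was relative to 20 uM Triacsin C.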

[1] = measured here: cell number channel AC50, cells fed with added oleic acid
[2] = measured here: lipid fluorescence (Fed channel) AC50, cells fed with added oleic acid

| Structure (SMILES) | cell number change [%] | AC50 [1] | AC50 [2] |
| --- | --- | --- | --- |
| CCOC(=O)C1CCN(C(=O)CNC(=O)c2nn(-c3ccc(OC)cc3OC)c(=O)c3ccccc23)CC1 | -25.7 |  |  |
| O=C(CCCN1C(=O)c2ccccc2C1=O)Nc1ccccc1 | 1.6 |  |  |
| CCOC(=O)C1=C(C)NC(=O)NC1c1cccc(OC)c1OCc1ccccc1Cl (stereo not given) | -31.7 | 20.6 µM [falling, single point] |  |
| Oc1ccc(Nc2nc(-c3ccccc3O)nc3ccccc23)cc1 | 27.9 |  | 29.1 µM [rising, single point] |
| CCCCCCc1c(C)nc(-n2[nH]c(C)c(CCO)c2=O)[nH]c1=O | 1.97 |  |  |
| COc1ccc(S(=O)(=O)Nc2ccc(NC(C)=O)cc2)cc1Br | -22.5 | 5.17 µM [rising, single point] | 16.4 µM [falling, single point] |
| C=CCn1c(SCc2ccccc2F)nc2cc(C(=O)O)ccc2c1=O | 12 |  | 6.51 µM [rising, single point] |
| Cc1ccc(S(=O)(=O)N(Cc2cc3cc4c(cc3[nH]c2=O)OCCO4)CC2CCCO2)cc1 (stereo not given) | 14.3 |  |  |
| Cc1ccc(OCCCNCCO)c(Br)c1 | -30.4 | 5.8 µM [falling, full curve, poor fit] | 0.58 µM [falling, full curve] |
| CCOc1ccccc1CNC(=O)c1nn(CC)cc1[N+](=O)[O-] | -0.314 |  |  |
| COc1ccc(C(=O)Nc2ccc(NC(=O)c3cc(OC)c(OC)c(OC)c3)cn2)cc1 | 17.1 |  | 25.9 µM [falling, single point] |
| COC(=O)c1cc(Sc2cccc(Cl)c2Cl)ccn1 | 76.1 | 29.1 µM [rising, single point] | 0.651 µM [rising, partial curve, poor fit] |
| COc1cc(SC)ccc1C(=O)NCCc1c[nH]c2ccccc12 | -18.2 |  | 2.06 µM [falling, partial curve] |
| CC1=NN(c2ccc(C(=O)O)cc2)C(=O)/C1=C/c1ccc(-c2ccccc2F)o1 | -98.6 | 20.6 µM [falling, single point] | 7.31 µM [falling, partial curve] |
| CCOc1ccc(/C=N/NC(=O)c2ccc(Cn3cc(Br)cn3)o2)cc1 | 12.7 |  | 0.517 µM [rising, full curve] |
| Cc1noc(C)c1COC(=O)c1cc2c3ccccc3n(C)c2s1 | 52.8 | 7.31 µM [rising, partial curve] | 3.26 µM [rising, partial curve] |
| Cc1cn2c(=O)c(C(=O)NCc3ccc4c(c3)OCO4)cnc2s1 | 34.7 | 29.1 µM [rising, single point] | 29.1 µM [rising, single point] |

Random excerpt: two compounds from above.

| Structure (SMILES) | cell number change [%] | AC50 [1] | AC50 [2] |
| --- | --- | --- | --- |
| COc1ccc(C(=O)Nc2ccc(NC(=O)c3cc(OC)c(OC)c(OC)c3)cn2)cc1 | 17.1 |  | 25.9 µM [falling, single point] |
| COc1ccc(S(=O)(=O)Nc2ccc(NC(C)=O)cc2)cc1Br | -22.5 | 5.17 µM [rising, single point] | 16.4 µM [falling, single point] |
